These are yes or no findings as the source states them, for the method shown. In cells and extracts the contact can be indirect. Some results given as binding are weak or reduced against the parent protein; the word gives no strength.

Sequences of proteins named here, by UniProt entry; tags and fusion partners are left off.
UniProt O14543: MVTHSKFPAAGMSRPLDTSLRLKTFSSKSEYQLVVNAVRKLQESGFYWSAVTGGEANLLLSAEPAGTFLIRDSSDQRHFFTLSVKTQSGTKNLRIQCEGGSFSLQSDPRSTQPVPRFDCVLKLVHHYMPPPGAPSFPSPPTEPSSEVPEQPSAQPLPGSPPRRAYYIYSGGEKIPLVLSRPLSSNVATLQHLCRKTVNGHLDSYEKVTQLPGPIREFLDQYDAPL

This experiment concerns the target T1, APN receptor 1 (AdipoR1) (human (endogenous in HUVECs)) (UniProt Q96A54).
T1 sequence: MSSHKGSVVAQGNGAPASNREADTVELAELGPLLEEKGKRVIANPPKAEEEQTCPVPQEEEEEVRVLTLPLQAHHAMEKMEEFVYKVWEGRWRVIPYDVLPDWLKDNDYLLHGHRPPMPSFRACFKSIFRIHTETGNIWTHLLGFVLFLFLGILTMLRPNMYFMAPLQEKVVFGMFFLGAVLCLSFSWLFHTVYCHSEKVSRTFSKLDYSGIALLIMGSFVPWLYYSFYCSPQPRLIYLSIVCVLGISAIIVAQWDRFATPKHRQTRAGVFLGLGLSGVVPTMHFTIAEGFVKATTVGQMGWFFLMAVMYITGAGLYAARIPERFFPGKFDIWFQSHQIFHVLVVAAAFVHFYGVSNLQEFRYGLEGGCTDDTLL
Nature of the experiment: co-IP; HUVEC lysate (1 mg/sample) precipitated with 2 ug anti-AdipoR1 antibody and protein A + G agarose beads, non-immune rabbit IgG as negative control, western blot of the eluate; cells treated with NIC, HG/HL, NIC + HG/HL, MG132, or siRNA-SOCS3.

For “suppressor of cytokine signaling 3 (SOCS3) (from UniProt O14543 1-225)”, the binding result was “binds”.

The record behind these values is paper PMC8131622.
